This is an account of results in paper PMC5695612.

Test [1] deals with FLAG-tagged TBSV p33 replication protein (tomato bushy stunt virus (TBSV)). The test can be described thus: co-IP; FLAG-affinity purification of the FLAG-tagged baits from the detergent-solubilised membrane fraction of yeast (for FLAG-GFP the soluble and membrane fractions). His6-Pgk1 was detected by Western blot with anti-His antibody. Also done at time points after shutting down p33 and p92^pol expression and adding cycloheximide. A general note: A western blot detects proteins with antibodies after separation by electrophoresis.

Test [2] has as its target FLAG-tagged TBSV p92^pol replication protein (tomato bushy stunt virus (TBSV)). The test is described as above.

No constants are given. Whether binding was seen depends on the method and setting. In cells and extracts the contact can be indirect. A result given as binding can be weak or reduced; the word gives no strength. Sequences can lack the tags named with a protein.

B1: His6-tagged yeast cytosolic Pgk1 phosphoglycerate kinase (enzyme, UniProt P00560 1-416)
chain: MSLSSKLSVQDLDLKDKRVFIRVDFNVPLDGKKITSNQRIVAALPTIKYVLEHHPRYVVLASHLGRPNGERNEKYSLAPVAKELQSLLGKDVTFLNDCVGPEVEAAVKASAPGSVILLENLRYHIEEEGSRKVDGQKVKASKEDVQKFRHELSSLADVYINDAFGTAHRAHSSMVGFDLPQRAAGFLLEKELKYFGKALENPTRPFLAILGGAKVADKIQLIDNLLDKVDSIIIGGGMAFTFKKVLENTEIGDSIFDKAGAEIVPKLMEKAKAKGVEVVLPVDFIIADAFSADANTKTVTDKEGIPAGWQGLDNGPESRKLFAATVAKAKTIVWNGPPGVFEFEKFAAGTKALLDEVVKSSAAGNTVIIGGGDTATVAKKYGVTDKISHVSTGGGASLELLEGKELPGVAFLSEKK
As to B1, the binding result in test [1] and in test [2] was “binds” in each case.
